Where a chain is given by its changes, count along the chain named.
Test system: MCF-7 cells
Assay: Immunofluorescence microscopy (phalloidin, anti-FAK, anti-vinculin)
Assay type: cell-based, human
Conditions: for height of cells in clusters: phalloidin-stained clusters, FIG. 4

B1: Ser179Ala: phosphodefective Ser179 to Ala mutant of human syndecan-4-GFP, expressed in MCF-7 cells (protein, UniProt P31431 19-198, looked up, variant S179A)
Syndecan-4: ESIRETEVIDPQDLLEGRYFSGALPDDEDVVGPGQESDDFELSGSGDLDDLEDSMIGPEVVHPLVPLDNHIPERAGSGSQVPTEPKKLEENEVIPKRISPVEESEDVSNKVSMSSTVQGSNIFERTEVLAALIVGGIVGILFAVFLILLLMYRMKKKDEGAYDLGKKPIYKKAPTNEFYA
modifications: GFP inserted at position 131
notes: phosphodefective Ser179 to Ala mutant of human syndecan-4-GFP, expressed in MCF-7 cells
height of cells in clusters: 30 μm

B2: wt-syndecan-4: human syndecan-4 with GFP inserted at position 131, stably expressed in MCF-7 cells (protein)
chain: B1 Syndecan-4 with A161S
modifications: left off: large carriers
notes: human syndecan-4 with GFP inserted at position 131, stably expressed in MCF-7 cells
height of cells in clusters: 20 μm
mature focal adhesions per cell (quiescent cells on fibronectin, anti-FAK or anti-vinculin): approximately 60 per cell
